Source: US20170226208A1 (SUPPREMOL, published 2017)
These are yes or no findings as the source states them, for the method shown. Some binding calls cover weakened binding; strength is not graded here. Each block holds one binder with its values, some of them ahead of it.

The chains behind the UniProt entries cited, without tags or fusion partners. Residues count along the entry.
UniProt P31994, residues 43-310: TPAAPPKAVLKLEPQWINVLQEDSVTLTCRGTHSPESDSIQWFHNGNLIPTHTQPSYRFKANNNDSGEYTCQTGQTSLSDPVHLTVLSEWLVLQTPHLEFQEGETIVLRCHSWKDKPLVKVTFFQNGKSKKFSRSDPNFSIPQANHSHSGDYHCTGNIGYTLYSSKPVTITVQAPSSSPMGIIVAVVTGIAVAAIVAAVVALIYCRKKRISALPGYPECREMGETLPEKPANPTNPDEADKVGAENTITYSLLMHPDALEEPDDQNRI
UniProt P12319, residues 26-205: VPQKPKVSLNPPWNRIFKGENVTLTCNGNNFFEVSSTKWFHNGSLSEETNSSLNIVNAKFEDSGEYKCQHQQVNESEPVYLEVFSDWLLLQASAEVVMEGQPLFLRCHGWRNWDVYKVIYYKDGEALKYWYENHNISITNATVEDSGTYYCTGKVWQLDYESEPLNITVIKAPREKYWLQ

Columns and labels:
[1] = target: native FcγRIIB expressed on cells (Raji, Daudi, PBMC B cells) (human) (UniProt P31994); test: FACS on Raji cells, FITC anti-human kappa detection
[2] = target: recombinant soluble FcεRIα (His-tagged extracellular domain of human FcεRIα) (human) (UniProt P12319); test: ELISA, sFcεRIα coated
[3] = target: recombinant soluble FcεRIα (His-tagged extracellular domain of human FcεRIα) (human) (UniProt P12319); test: summary of the binding experiments (ELISA, sandwich ELISA, Biacore)
[4] = target: recombinant soluble FcεRIα (His-tagged extracellular domain of human FcεRIα) (human) (UniProt P12319); test: ELISA, sFcεRIα coated (FIG. 17)
[5] = target: recombinant soluble FcεRIα (His-tagged extracellular domain of human FcεRIα) (human) (UniProt P12319); test: ELISA, sFcεRIα coated (FIG. 20)
[6] = target: recombinant soluble human FcγRIIB (UniProt P31994); test: summary of the binding experiments (ELISA, FACS, Biacore)
[7] = target: recombinant soluble FcεRIα (His-tagged extracellular domain of human FcεRIα) (human) (UniProt P12319); test: ELISA, sFcεRIα coated, anti-human kappa-HRP detection
[8] = target: recombinant soluble human FcγRIIB (UniProt P31994); test: ELISA, SM101 (sFcγRIIB) coated, anti-human kappa-HRP detection
[9] = target: recombinant soluble FcεRIα (His-tagged extracellular domain of human FcεRIα) (human) (UniProt P12319); test: sandwich ELISA: SM101 coated, antibody, then sFcεRIα, detected with biotinylated anti-FcεRIα CRA1
[10] = target: recombinant soluble human FcγRIIB (UniProt P31994); test: as above
[11] = target: recombinant soluble human FcγRIIB (UniProt P31994); test: ELISA, SM101 coated (FIG. 16)
[12] = target: recombinant soluble human FcγRIIB (UniProt P31994); test: sandwich ELISA: SM101 coated, antibody, then sFcεRIα

binding [1]: binds
binding [2]: binds
binding [3]: binds
binding [4]: binds
binding [5]: binds
binding [6]: binds
binding [7]: binds
binding [8]: binds
binding [9]: binds
binding [10]: binds
binding [11]: binds
B1: ch8A6_cε2-4 (bispecific antibody, not shown: large carriers)
heavy: EVQLVESGGDLVQPGRSLRLSCAASGFTFSDYYMAWVRQAPKKGLEWVASISSDGSNTYYGDSVKGRFTISRDNTRSNLYLQMNSLRSEDTATYYCARPGDYWGQGVMVTVSSASTKGPSVFPLAPSSKSTSGGTAALGCLVKDYFPEPVTVSWNSGALTSGVHTFPAVLQSSGLYSLSSVVTVPSSSLGTQTYICNVNHKPSNTKVDKRVEPKSCDKTFSVSSRDFTPPTVKILQSSCDGGGHFPPTIQLLCLVSGYTPGTINITWLEDGQVMDVDLSTASTTQEGELASTQSELTLSQKHWLSDRTYTCQVTYQGHTFEDSTKKCADSNPRGVSAYLSRPSPFDLFIRKSPTITCLVVDLAPSKGTVNLTWSRASGKPVNHSTRKEEKQRNGTLTVTSTLPVGTRDWIEGETYQCRVTHPHLPRALMRSTTKTSGPRAAPEVYAFATPEWPGSRDKRTLACLIQNFMPEDISVQWLHNEVQLPDARHSTTQPRKTKGSGFFVFSRLEVTRAEWEQKDEFICRAVHEAASPSQTVQRAVSVNPGK
light: NIVMTQSPTSMFISVGDRVTMNCKASQNVGTYVDWFQQKTGQSPTLLIFGASNRYTGVPDRFTGSGSGTDFTLSISNMQAEDLAVYYCLQYNYHPYTFGPGTTLELKR

binding [1]: binds
binding [6]: binds
binding [8]: binds
binding [12]: binds
binding [10]: binds
binding [11]: binds
B2: ch8A6_cε3-4 (bispecific antibody, not shown: large carriers)
heavy: EVQLVESGGDLVQPGRSLRLSCAASGFTFSDYYMAWVRQAPKKGLEWVASISSDGSNTYYGDSVKGRFTISRDNTRSNLYLQMNSLRSEDTATYYCARPGDYWGQGVMVTVSSASTKGPSVFPLAPSSKSTSGGTAALGCLVKDYFPEPVTVSWNSGALTSGVHTFPAVLQSSGLYSLSSVVTVPSSSLGTQTYICNVNHKPSNTKVDKRVEPKSCDKTHTCPPCPAPELLGGVSAYLSRPSPFDLFIRKSPTITCLVVDLAPSKGTVNLTWSRASGKPVNHSTRKEEKQRNGTLTVTSTLPVGTRDWIEGETYQCRVTHPHLPRALMRSTTKTSGPRAAPEVYAFATPEWPGSRDKRTLACLIQNFMPEDISVQWLHNEVQLPDARHSTTQPRKTKGSGFFVFSRLEVTRAEWEQKDEFICRAVHEAASPSQTVQRAVSVNPGK
light: B1 light
